Laboratory results taken from the supplement of paper PMC3682954.
Structures can show the parent of a compound that is named as a salt. ± gives the standard deviation of the averaged measurements. This is one part of the list. Many values rest on one well or one pass, so single values are uncertain.

Test system: RAW 264.7
Experiment: HMGB1-induced TNF-alpha production relative to HMGB1-stimulated control; higher = more TNF-alpha secretion (less inhibition)
Conditions: stimulus: HMGB1 5 ug/ml, 18 h
[1] = compound concentration: 1 ug/ml

SMILES | HMGB1-induced TNF-alpha production [1] [%] | HMGB1-induced TNF-alpha production (compound concentration: 3 uM) [%]
C[C@]12CCC(=O)C=C1CC[C@@H]1[C@@H]2[C@@H](O)C[C@@]2(C)[C@H]1CC[C@]2(O)C(=O)CO [Hydrocortisone, 98%] | 56.6 | 
C[C@]12CCC(=O)C=C1CC[C@@H]1[C@@H]2[C@@H](O)C[C@@]2(C)[C@H]1CC[C@]2(O)C(=O)CO |  | 40.2
C[C@]12CCC(=O)C=C1CC[C@@H]1[C@@H]2[C@@H](O)C[C@@]2(C)[C@H]1CC[C@]2(O)C(=O)CO [Hydrocortisone] |  | 53.4 ± 21
C[C@]12CCC(=O)C=C1CC[C@@H]1[C@@H]2[C@@H](O)C[C@@]2(C)[C@H]1CC[C@]2(O)C(=O)CO [Hydrocortisone base] |  | 28.9
CC(=O)C1=C(O)C=C2Oc3c(C(C)=O)c(O)c(C)c(O)c3[C@@]2(C)C1=O [(+)-Usnic acid] | 71.6 | 
O=C(CCc1ccc(O)cc1)c1c(O)cc(O)cc1O[C@@H]1O[C@H](CO)[C@@H](O)[C@H](O)[C@H]1O [Phloridzin dihydrate] | 59 | 
S=C(S)OC1CC2CC1C1CCCC21 [D-609 potassium] |  | 104
O=c1cc(-c2ccccc2F)[nH]c2cc3c(cc12)OCO3 [CHM-1 hydrate] |  | 129
Oc1ncnc2[nH]ncc12 [Allopurinol] |  | 101 ± 9.4
Oc1ncnc2[nH]ncc12 |  | 98.2
O=[N+]([O-])c1ccc(-c2nc(-c3ccc(F)cc3)c(-c3ccncc3)[nH]2)cc1 |  | 71.2
Cc1sc(N)c(C(=O)c2cccc(C(F)(F)F)c2)c1C |  | 99.5
CC(=O)Oc1c(C)c(C)c2c(c1C)CCC(C)(CCCC(C)CCCC(C)CCCC(C)C)O2 (racemic) [DL-a-Tocopherol acetate] | 74.7 | 
CO/N=C(\C(=O)N[C@@H]1C(=O)N2C(C(=O)OCOC(=O)C(C)(C)C)=C(/C=C\c3scnc3C)CS[C@H]12)c1csc(N)n1 |  | 78.6
CN(N=O)C(=O)N[C@H]1C(O)O[C@H](CO)[C@@H](O)[C@@H]1O (mixture of isomers) |  | 91.3 ± 1.6
Cc1onc(-c2ccccc2)c1-c1ccc(S(N)(=O)=O)cc1 |  | 84
COc1ccc(CCN(C)CCCC(C#N)(c2ccc(OC)c(OC)c2)C(C)C)cc1OC (stereo not drawn) [Verapamil hydrochloride] |  | 66.2
COc1ccc(CCN(C)CCCC(C#N)(c2ccc(OC)c(OC)c2)C(C)C)cc1OC (stereo not drawn) [Verapamil] |  | 98.3
COc1ccc(CCN(C)CCCC(C#N)(c2ccc(OC)c(OC)c2)C(C)C)cc1OC (stereo not drawn) | 66.1 | 
CCCc1cc(=O)[nH]c(=S)[nH]1 [Propylthiouracil] |  | 59.1
CCCc1cc(=O)[nH]c(=S)[nH]1 |  | 87.6
C[N+]1(CCCCC[N+]2(C)CCCC2)CCCC1 [Pentolinium di[L(+)-tartrate]] |  | 107
C[N+]1(CCCCC[N+]2(C)CCCC2)CCCC1 [Pentolinium bitartrate] |  | 88.9

Another view of some results above.
Cc1onc(-c2ccccc2)c1-c1ccc(S(N)(=O)=O)cc1
  HMGB1-induced TNF-alpha production (compound concentration: 3 uM) [%]: 84
COc1ccc(CCN(C)CCCC(C#N)(c2ccc(OC)c(OC)c2)C(C)C)cc1OC (stereo not drawn) [Verapamil hydrochloride]
  HMGB1-induced TNF-alpha production (compound concentration: 3 uM) [%]: 66.2
